Experimental findings from paper doi:10.1101/2025.03.01.640934 are described below.

Chains of the proteins cited; added tags and fusions are not shown. Lines headed by an entry give the natural chain unless they say otherwise; changes in a name come on top.
UniProt Q6NUN9: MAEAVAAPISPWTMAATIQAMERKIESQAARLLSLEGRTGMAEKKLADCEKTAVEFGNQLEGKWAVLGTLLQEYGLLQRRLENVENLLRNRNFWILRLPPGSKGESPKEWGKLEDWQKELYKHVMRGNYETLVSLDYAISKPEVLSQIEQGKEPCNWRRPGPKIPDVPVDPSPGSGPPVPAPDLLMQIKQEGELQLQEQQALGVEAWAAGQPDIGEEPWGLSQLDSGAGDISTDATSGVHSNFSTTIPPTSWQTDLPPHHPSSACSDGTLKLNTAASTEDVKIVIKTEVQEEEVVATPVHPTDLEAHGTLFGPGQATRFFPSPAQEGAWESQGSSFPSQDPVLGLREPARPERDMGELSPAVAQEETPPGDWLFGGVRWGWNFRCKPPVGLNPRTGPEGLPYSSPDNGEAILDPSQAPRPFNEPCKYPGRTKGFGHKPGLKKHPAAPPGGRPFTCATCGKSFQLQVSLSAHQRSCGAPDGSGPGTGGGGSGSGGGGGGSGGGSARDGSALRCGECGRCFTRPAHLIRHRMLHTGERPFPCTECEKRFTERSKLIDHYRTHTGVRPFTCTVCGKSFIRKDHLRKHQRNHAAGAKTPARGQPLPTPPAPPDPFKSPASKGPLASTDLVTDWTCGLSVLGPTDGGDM

Assay [1] deals with HA-tagged DK fragment of ZNF746, wild-type (human) (UniProt Q6NUN9). As to the kind of experiment: native gel or EMSA. In general terms: Mobility shift assays separate free from complexed probe on a gel.
The target in assay [2] is HA-tagged full-length ZNF746, wild-type (human) (UniProt Q6NUN9). As to the kind of experiment: native gel or EMSA.

No constants are given. Whether binding was seen depends on the method and setting. Some entries that bind do so weakly or less than the wild type.

In the case of “HA-tagged DK fragment of ZNF746, wild-type (from UniProt Q6NUN9 1-191) (domain or fragment)”, the binding entry in assay [1] was “binds”. In the case of “HA-tagged full-length ZNF746, wild-type (from UniProt Q6NUN9 1-644)”, the binding entry in assay [2] was “binds”.
